Here are results for two substances from paper PMC6345199.

Amino acid sequences for entries named in this document (tags omitted). Residues count along the entry.
UniProt Q9Y328: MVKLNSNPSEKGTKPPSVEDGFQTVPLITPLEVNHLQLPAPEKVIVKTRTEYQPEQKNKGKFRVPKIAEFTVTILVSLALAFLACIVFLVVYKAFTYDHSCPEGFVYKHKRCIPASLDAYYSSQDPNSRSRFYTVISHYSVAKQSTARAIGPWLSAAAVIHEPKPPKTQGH
UniProt P19490, residues 19-907: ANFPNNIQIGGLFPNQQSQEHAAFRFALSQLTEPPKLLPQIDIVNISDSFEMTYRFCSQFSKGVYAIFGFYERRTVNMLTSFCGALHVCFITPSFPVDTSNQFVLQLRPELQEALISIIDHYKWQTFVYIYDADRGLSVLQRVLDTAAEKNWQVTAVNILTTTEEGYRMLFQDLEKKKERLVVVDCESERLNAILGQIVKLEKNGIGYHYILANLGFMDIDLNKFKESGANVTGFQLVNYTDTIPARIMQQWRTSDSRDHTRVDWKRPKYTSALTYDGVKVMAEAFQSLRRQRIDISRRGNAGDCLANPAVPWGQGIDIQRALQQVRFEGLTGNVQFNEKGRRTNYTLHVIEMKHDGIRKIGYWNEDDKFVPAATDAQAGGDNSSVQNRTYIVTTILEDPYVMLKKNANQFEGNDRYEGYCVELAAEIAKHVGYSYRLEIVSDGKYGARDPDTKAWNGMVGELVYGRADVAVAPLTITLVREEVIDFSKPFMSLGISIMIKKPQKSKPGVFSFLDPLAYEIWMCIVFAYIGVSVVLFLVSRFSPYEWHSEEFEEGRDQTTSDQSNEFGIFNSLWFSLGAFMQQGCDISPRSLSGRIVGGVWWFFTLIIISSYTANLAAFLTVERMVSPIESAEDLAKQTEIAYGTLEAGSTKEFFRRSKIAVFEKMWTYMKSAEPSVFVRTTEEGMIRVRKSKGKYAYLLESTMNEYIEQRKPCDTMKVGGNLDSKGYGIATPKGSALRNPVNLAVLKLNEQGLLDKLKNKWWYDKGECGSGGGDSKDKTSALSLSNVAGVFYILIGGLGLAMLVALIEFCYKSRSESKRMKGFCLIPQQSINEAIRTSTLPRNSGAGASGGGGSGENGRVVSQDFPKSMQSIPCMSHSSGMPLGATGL

Test [1] addresses NSG2-mCherry (human neuron-specific gene 2 fused to mCherry) (human) (UniProt Q9Y328). Nature of the test: co-IP; HEK293T co-expressing NSG2-mC and either YFP-GluA1 or GFP-GluA2; lysate in 50 mM Tris, 150 mM NaCl, 1 mM EDTA, 1% Triton X-100, pH 7.4; 1.5 mg total protein; NSG2-mC precipitated with anti-RFP/mCherry monoclonal antibody agarose; GluA1 and GluA2 detected by capillary immunoelectrophoresis (Wes).

The target of another test is YFP-GluA1 (UniProt P19490). Nature of the test: co-IP; whole-cell lysates of HEK293T co-expressing unlabeled NSG2 with YFP-GluA1 or GFP-GluA2; 2 mg total protein with 4 ug mouse anti-GluA1 (RH95) or anti-GluA2 (6C4) overnight at 4 C, protein A/G agarose; NSG2 detected by capillary immunoelectrophoresis (Wes).

These are yes or no findings as the source states them, for the method shown. Binding seen in cells or lysates may run through a third protein. Some entries that bind do so weakly or less than the wild type.

For “YFP-GluA1 (from UniProt P19490 19-907) (receptor)”, the binding entry in test [1] is recorded as “binds”.

For the substance “unlabeled NSG2 (overexpressed) (from UniProt Q9Y328 1-171)”, in the test with YFP-GluA1, the binding result is given as “binds”.
